Taken from: PubChem BioAssay AID1224828 (NIAID, 2016)
The deposit covers about 17,000 reagents; below is a random part of them. 762 of all reagents (4.5%) were called active. 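Active calls include both raised and lowered p65 entry, mostly lowered; wells with fewer than 50 cells lack a z-score.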 Raw values are not corrected between plates.

Screen: 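Find genes required for NF-kappaB p65 moving into the nucleus after LPS in mouse macrophages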 (primary screen)
Cell system: mouse RAW264.7 G9 macrophage reporter cells (GFP-p65, Tnf promoter-mCherry)
Knock-down reagent: siRNA pool against mouse genes, 100 nM
Time to read-out: 2 days siRNA transfection, then 40 min LPS before fixation
Conditions: LPS (Salmonella minnesota R595) at 10 ng/ml
Measured: 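Imaged p65 nuclear translocation ratio, normalised to the plate median, converted to robust z-scores and averaged across two replicates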
Scale: p65 translocation robust z-score: higher = more nuclear NF-kappaB p65 after LPS than the plate median; nuclear/cytoplasmic p65 ratio: higher = more nuclear NF-kappaB p65
Call rule: 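Active if robust z is above 3.3 (negative regulators) or below -1.56, the Tlr4 control median (positive regulators); activity score 50 or more; control wells not called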
Calls: active = hit (p65 shift raised or lowered); inactive = no clear change

{"target gene": "Or1ad1 (GeneID 258913)", "p65 translocation robust z-score": -0.33, "nuclear/cytoplasmic p65 ratio, rep 1": 1.47, "nuclear/cytoplasmic p65 ratio, rep 2": 1.54, "low cell count flag": "enough cells to score", "Outcome": "inactive"}
{"target gene": "Mgat1 (GeneID 17308)", "p65 translocation robust z-score": 0.59, "nuclear/cytoplasmic p65 ratio, rep 1": 1.84, "nuclear/cytoplasmic p65 ratio, rep 2": 1.6, "low cell count flag": "enough cells to score", "Outcome": "inactive"}
{"target gene": "Usp5 (GeneID 22225)", "p65 translocation robust z-score": -1.48, "nuclear/cytoplasmic p65 ratio, rep 1": 1.45, "nuclear/cytoplasmic p65 ratio, rep 2": 1.16, "low cell count flag": "enough cells to score", "Outcome": "inactive"}
{"target gene": "Zc3h10 (GeneID 103284)", "p65 translocation robust z-score": -0.75, "nuclear/cytoplasmic p65 ratio, rep 1": 1.48, "nuclear/cytoplasmic p65 ratio, rep 2": 1.59, "low cell count flag": "enough cells to score", "Outcome": "inactive"}
{"target gene": "Gss (GeneID 14854)", "p65 translocation robust z-score": -0.77, "nuclear/cytoplasmic p65 ratio, rep 1": 1.35, "nuclear/cytoplasmic p65 ratio, rep 2": 1.25, "low cell count flag": "enough cells to score", "Outcome": "inactive"}
{"target gene": "Or2y3 (GeneID 258867)", "p65 translocation robust z-score": 0.98, "nuclear/cytoplasmic p65 ratio, rep 1": 1.6, "nuclear/cytoplasmic p65 ratio, rep 2": 1.69, "low cell count flag": "enough cells to score", "Outcome": "inactive"}
{"target gene": "Idh3a (GeneID 67834)", "p65 translocation robust z-score": 1.27, "nuclear/cytoplasmic p65 ratio, rep 1": 1.79, "nuclear/cytoplasmic p65 ratio, rep 2": 1.55, "low cell count flag": "enough cells to score", "Outcome": "inactive"}
{"target gene": "Sntb1 (GeneID 20649)", "p65 translocation robust z-score": 0.11, "nuclear/cytoplasmic p65 ratio, rep 1": 1.43, "nuclear/cytoplasmic p65 ratio, rep 2": 1.24, "low cell count flag": "enough cells to score", "Outcome": "inactive"}
{"target gene": "Prcp (GeneID 72461)", "p65 translocation robust z-score": 0.12, "nuclear/cytoplasmic p65 ratio, rep 1": 1.72, "nuclear/cytoplasmic p65 ratio, rep 2": 1.55, "low cell count flag": "enough cells to score", "Outcome": "inactive"}
{"target gene": "Mrpl49 (GeneID 18120)", "p65 translocation robust z-score": 0.93, "nuclear/cytoplasmic p65 ratio, rep 1": 2.04, "nuclear/cytoplasmic p65 ratio, rep 2": 1.64, "low cell count flag": "enough cells to score", "Outcome": "inactive"}
{"target gene": "B3galt6 (GeneID 117592)", "p65 translocation robust z-score": 0.95, "nuclear/cytoplasmic p65 ratio, rep 1": 1.75, "nuclear/cytoplasmic p65 ratio, rep 2": 1.64, "low cell count flag": "enough cells to score", "Outcome": "inactive"}
{"target gene": "Cdk2ap1 (GeneID 13445)", "p65 translocation robust z-score": 0.56, "nuclear/cytoplasmic p65 ratio, rep 1": 1.6, "nuclear/cytoplasmic p65 ratio, rep 2": 1.39, "low cell count flag": "enough cells to score", "Outcome": "inactive"}
{"target gene": "Or2k2 (GeneID 258922)", "nuclear/cytoplasmic p65 ratio, rep 1": 1.66, "nuclear/cytoplasmic p65 ratio, rep 2": 1.46, "low cell count flag": "fewer than 50 cells per well; well left out of scoring", "Outcome": "inactive"}
{"target gene": "Jpt2 (GeneID 52009)", "p65 translocation robust z-score": -0.82, "nuclear/cytoplasmic p65 ratio, rep 1": 1.43, "nuclear/cytoplasmic p65 ratio, rep 2": 2.36, "low cell count flag": "enough cells to score", "Outcome": "inactive"}

Ordered by “nuclear/cytoplasmic p65 ratio, rep 1” (low to high): some entries from above.
{"target gene": "Usp5 (GeneID 22225)", "p65 translocation robust z-score": -1.48, "nuclear/cytoplasmic p65 ratio, rep 1": 1.45, "nuclear/cytoplasmic p65 ratio, rep 2": 1.16, "low cell count flag": "enough cells to score", "Outcome": "inactive"}
{"target gene": "Mgat1 (GeneID 17308)", "p65 translocation robust z-score": 0.59, "nuclear/cytoplasmic p65 ratio, rep 1": 1.84, "nuclear/cytoplasmic p65 ratio, rep 2": 1.6, "low cell count flag": "enough cells to score", "Outcome": "inactive"}
